In assay [1] the target is desmoplakin (DP) (human (endogenous in SCC9)), P15924. The assay is described as follows: co-IP. Conditions: remark: other sources report otherwise.
In assay [2] the target is T1, PP2A regulatory subunit B55α (human (endogenous in SCC9)) (UniProt P63151).
T1 sequence: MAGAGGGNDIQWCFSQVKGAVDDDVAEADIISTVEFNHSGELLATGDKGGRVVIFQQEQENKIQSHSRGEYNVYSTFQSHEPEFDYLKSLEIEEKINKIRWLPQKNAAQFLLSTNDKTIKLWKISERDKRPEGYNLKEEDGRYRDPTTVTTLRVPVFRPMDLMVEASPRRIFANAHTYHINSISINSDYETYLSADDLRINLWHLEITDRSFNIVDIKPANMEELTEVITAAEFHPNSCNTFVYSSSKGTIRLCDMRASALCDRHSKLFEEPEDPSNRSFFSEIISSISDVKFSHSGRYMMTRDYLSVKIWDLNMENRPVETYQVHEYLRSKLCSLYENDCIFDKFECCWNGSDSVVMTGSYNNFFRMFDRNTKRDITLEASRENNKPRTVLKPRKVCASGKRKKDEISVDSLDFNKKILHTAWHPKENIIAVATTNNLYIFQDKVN
The assay is described as follows: co-IP.

Protein sequences, listed by entry. Tags and fused reporters are not part of them.
UniProt P15924: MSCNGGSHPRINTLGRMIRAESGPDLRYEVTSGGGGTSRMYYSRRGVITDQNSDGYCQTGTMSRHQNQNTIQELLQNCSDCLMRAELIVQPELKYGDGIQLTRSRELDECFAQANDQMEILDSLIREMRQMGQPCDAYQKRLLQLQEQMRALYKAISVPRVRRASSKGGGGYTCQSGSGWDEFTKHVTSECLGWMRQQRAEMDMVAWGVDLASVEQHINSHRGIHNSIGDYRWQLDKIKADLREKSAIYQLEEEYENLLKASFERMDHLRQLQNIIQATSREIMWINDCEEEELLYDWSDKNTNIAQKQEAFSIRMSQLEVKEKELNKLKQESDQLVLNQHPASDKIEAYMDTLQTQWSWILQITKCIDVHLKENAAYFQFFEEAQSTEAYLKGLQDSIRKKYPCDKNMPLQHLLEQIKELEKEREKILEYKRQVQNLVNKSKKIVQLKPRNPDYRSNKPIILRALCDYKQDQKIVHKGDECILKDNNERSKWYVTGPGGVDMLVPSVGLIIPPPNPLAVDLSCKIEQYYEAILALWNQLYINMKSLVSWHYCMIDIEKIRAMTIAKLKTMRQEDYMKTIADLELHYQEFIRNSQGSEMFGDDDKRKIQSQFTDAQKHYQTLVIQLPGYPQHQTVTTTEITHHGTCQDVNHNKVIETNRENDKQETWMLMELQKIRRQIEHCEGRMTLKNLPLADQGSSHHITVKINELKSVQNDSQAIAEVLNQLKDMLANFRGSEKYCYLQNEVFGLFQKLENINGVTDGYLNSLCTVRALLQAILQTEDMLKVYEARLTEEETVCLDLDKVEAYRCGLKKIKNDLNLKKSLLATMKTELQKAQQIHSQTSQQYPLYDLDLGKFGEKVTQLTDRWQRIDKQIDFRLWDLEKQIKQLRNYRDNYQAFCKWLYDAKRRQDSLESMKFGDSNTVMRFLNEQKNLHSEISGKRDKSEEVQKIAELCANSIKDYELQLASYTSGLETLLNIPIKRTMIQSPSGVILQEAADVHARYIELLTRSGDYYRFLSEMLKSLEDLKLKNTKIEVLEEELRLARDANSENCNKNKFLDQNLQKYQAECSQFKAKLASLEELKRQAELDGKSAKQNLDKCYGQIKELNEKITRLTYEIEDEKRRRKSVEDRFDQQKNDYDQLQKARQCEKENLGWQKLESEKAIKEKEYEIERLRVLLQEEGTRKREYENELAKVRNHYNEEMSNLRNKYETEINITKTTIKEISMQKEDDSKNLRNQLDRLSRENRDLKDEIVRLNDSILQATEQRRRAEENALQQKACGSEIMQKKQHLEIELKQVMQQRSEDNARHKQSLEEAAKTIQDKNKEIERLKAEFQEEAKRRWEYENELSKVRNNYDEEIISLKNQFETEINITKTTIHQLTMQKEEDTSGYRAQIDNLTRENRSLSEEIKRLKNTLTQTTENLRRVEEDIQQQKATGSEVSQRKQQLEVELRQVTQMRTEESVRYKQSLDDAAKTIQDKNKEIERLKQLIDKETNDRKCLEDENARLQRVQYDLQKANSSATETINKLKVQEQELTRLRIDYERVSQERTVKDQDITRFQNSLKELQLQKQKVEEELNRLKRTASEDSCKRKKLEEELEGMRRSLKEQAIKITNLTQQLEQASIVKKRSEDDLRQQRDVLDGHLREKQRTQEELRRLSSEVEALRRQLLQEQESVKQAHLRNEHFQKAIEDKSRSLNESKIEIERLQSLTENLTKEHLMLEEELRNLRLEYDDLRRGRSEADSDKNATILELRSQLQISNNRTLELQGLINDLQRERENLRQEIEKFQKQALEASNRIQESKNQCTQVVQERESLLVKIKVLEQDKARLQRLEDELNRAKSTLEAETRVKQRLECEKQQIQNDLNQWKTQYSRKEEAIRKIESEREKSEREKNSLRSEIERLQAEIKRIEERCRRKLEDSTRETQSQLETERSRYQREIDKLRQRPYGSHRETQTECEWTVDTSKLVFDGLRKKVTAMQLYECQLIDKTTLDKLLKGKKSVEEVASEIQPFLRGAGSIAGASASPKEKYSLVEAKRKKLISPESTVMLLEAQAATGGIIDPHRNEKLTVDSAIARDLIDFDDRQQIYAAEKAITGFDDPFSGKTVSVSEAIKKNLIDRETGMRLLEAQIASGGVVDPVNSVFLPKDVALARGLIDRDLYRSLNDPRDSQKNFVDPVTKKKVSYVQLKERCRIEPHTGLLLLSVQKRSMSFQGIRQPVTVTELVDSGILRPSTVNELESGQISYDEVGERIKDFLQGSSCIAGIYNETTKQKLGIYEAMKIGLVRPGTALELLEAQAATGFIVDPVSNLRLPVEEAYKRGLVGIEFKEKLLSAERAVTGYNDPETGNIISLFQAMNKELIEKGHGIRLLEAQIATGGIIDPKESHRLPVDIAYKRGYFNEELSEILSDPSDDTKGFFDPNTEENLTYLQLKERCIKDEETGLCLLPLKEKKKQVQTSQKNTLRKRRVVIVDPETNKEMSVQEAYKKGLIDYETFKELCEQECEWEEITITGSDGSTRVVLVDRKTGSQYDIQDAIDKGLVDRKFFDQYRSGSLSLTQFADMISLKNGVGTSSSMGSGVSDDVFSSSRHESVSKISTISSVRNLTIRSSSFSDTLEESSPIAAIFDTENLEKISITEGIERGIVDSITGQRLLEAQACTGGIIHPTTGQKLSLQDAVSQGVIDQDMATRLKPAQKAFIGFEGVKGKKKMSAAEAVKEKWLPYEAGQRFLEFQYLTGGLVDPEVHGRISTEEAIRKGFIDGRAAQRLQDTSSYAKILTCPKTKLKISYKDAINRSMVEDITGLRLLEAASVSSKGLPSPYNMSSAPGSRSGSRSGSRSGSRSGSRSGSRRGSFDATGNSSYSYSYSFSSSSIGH

The target in assay [3] is desmoplakin (DP) (human (endogenous in SCC9)) (UniProt P15924). Description: proximity ligation.
Assay [4] has the same target. Description: proximity ligation. The source holds these as a separate data set.
Assay [5] shares this target. The assay is described as follows: co-IP.

Binding data for 3 molecules are collected here from paper doi:10.1101/2022.10.19.512916.

Results are given in words; binding and its absence hold for the method and conditions named. In cells and extracts the contact can be indirect. Some results given as binding are weak or reduced against the parent protein; the word gives no strength.

B1: desmosomal cadherin Dsg3, P32926 50-999 (protein)
chain: EWVKFAKPCREGEDNSKRNPIAKITSDYQATQKITYRISGVGIDQPPFGIFVVDKNTGDINITAIVDREETPSFLITCRALNAQGLDVEKPLILTVKILDINDNPPVFSQQIFMGEIEENSASNSLVMILNATDADEPNHLNSKIAFKIVSQEPAGTPMFLLSRNTGEVRTLTNSLDREQASSYRLVVSGADKDGEGLSTQCECNIKVKDVNDNFPMFRDSQYSARIEENILSSELLRFQVTDLDEEYTDNWLAVYFFTSGNEGNWFEIQTDPRTNEGILKVVKALDYEQLQSVKLSIAVKNKAEFHQSVISRYRVQSTPVTIQVINVREGIAFRPASKTFTVQKGISSKKLVDYILGTYQAIDEDTNKAASNVKYVMGRNDGGYLMIDSKTAEIKFVKNMNRDSTFIVNKTITAEVLAIDEYTGKTSTGTVYVRVPDFNDNCPTAVLEKDAVCSSSPSVVVSARTLNNRYTGPYTFALEDQPVKLPAVWSITTLNATSALLRAQEQIPPGVYHISLVLTDSQNNRCEMPRSLTLEVCQCDNRGICGTSYPTTSPGTRYGRPHSGRLGPAAIGLLLLGLLLLLLAPLLLLTCDCGAGSTGGVTGGFIPVPDGSEGTIHQWGIEGAHPEDKEITNICVPPVTANGADFMESSEVCTNTYARGTAVEGTSGMEMTTKLGAATESGGAAGFATGTVSGAASGFGAATGVGICSSGQSGTMRTRHSTGGTNKDYADGAISMNFLDSYFSQKAFACAEEDDGQEANDCLLIYDNEGADATGSPVGSVGCCSFIADDLDDSFLDSLGPKFKKLAEISLGVDGEGKEVQPPSKDSGYGIESCGHPIEVQQTGFVKCQTLSGSQGASALSTSGSVQPAVSIPDPLQHGNYLVTETYSASGSLVQPSTAGFDPLLTQNVIVTERVICPISSVPGNLAGPTQLRGSHTMLCTEDPCSRLI
With B1, in assay [1], the binding entry is listed as “binds”.

B2: desmosomal cadherin Dsg3 (protein, UniProt P32926 50-999)
chain: EWVKFAKPCREGEDNSKRNPIAKITSDYQATQKITYRISGVGIDQPPFGIFVVDKNTGDINITAIVDREETPSFLITCRALNAQGLDVEKPLILTVKILDINDNPPVFSQQIFMGEIEENSASNSLVMILNATDADEPNHLNSKIAFKIVSQEPAGTPMFLLSRNTGEVRTLTNSLDREQASSYRLVVSGADKDGEGLSTQCECNIKVKDVNDNFPMFRDSQYSARIEENILSSELLRFQVTDLDEEYTDNWLAVYFFTSGNEGNWFEIQTDPRTNEGILKVVKALDYEQLQSVKLSIAVKNKAEFHQSVISRYRVQSTPVTIQVINVREGIAFRPASKTFTVQKGISSKKLVDYILGTYQAIDEDTNKAASNVKYVMGRNDGGYLMIDSKTAEIKFVKNMNRDSTFIVNKTITAEVLAIDEYTGKTSTGTVYVRVPDFNDNCPTAVLEKDAVCSSSPSVVVSARTLNNRYTGPYTFALEDQPVKLPAVWSITTLNATSALLRAQEQIPPGVYHISLVLTDSQNNRCEMPRSLTLEVCQCDNRGICGTSYPTTSPGTRYGRPHSGRLGPAAIGLLLLGLLLLLLAPLLLLTCDCGAGSTGGVTGGFIPVPDGSEGTIHQWGIEGAHPEDKEITNICVPPVTANGADFMESSEVCTNTYARGTAVEGTSGMEMTTKLGAATESGGAAGFATGTVSGAASGFGAATGVGICSSGQSGTMRTRHSTGGTNKDYADGAISMNFLDSYFSQKAFACAEEDDGQEANDCLLIYDNEGADATGSPVGSVGCCSFIADDLDDSFLDSLGPKFKKLAEISLGVDGEGKEVQPPSKDSGYGIESCGHPIEVQQTGFVKCQTLSGSQGASALSTSGSVQPAVSIPDPLQHGNYLVTETYSASGSLVQPSTAGFDPLLTQNVIVTERVICPISSVPGNLAGPTQLRGSHTMLCTEDPCSRLI
B2: the binding result in assay [2] was “no binding”.

B3: PP2A regulatory subunit B55α (protein, UniProt P63151 1-447)
chain: MAGAGGGNDIQWCFSQVKGAVDDDVAEADIISTVEFNHSGELLATGDKGGRVVIFQQEQENKIQSHSRGEYNVYSTFQSHEPEFDYLKSLEIEEKINKIRWLPQKNAAQFLLSTNDKTIKLWKISERDKRPEGYNLKEEDGRYRDPTTVTTLRVPVFRPMDLMVEASPRRIFANAHTYHINSISINSDYETYLSADDLRINLWHLEITDRSFNIVDIKPANMEELTEVITAAEFHPNSCNTFVYSSSKGTIRLCDMRASALCDRHSKLFEEPEDPSNRSFFSEIISSISDVKFSHSGRYMMTRDYLSVKIWDLNMENRPVETYQVHEYLRSKLCSLYENDCIFDKFECCWNGSDSVVMTGSYNNFFRMFDRNTKRDITLEASRENNKPRTVLKPRKVCASGKRKKDEISVDSLDFNKKILHTAWHPKENIIAVATTNNLYIFQDKVN
As to B3, the binding entry in assay [3], in assay [4] and in assay [5] was “binds” throughout.
